# Results are given in words; binding and its absence hold for the method and conditions named. Some entries that bind do so weakly or less than the wild type. Where a sequence is shown, tags or fusion partners need not be part of it.
# T1: LOX catalytic domain (catalytic domain of human LOX, 169-417) (human) (UniProt P28300)
# T1 sequence: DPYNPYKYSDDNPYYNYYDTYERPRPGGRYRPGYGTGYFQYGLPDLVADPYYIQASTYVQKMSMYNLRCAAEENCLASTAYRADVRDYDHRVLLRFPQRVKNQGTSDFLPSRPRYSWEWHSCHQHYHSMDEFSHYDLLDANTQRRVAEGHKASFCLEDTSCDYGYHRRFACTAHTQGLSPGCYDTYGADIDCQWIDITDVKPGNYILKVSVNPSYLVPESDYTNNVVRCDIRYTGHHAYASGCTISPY
# Molecular target: T1, LOX catalytic domain (catalytic domain of human LOX, 169-417) (human)
# Experiment: ELISA, plate coated with LOX catalytic domain, bound protein detected with peroxidase-conjugated anti-human antibody
binder,measurement,value
"Fc-LPD N346, 362, 409Q (Fc fusion) APPAAGQQQPPREPPAAPGAWRQQIQWENNGQVFSLLSLGSQYQPQRRRDPGAAVPGAAQASAQQPRTPILLIRDQRTAAARTRTAGSSGVTAGRPRPTARHWFQAGYSTSRAREAGASRAEQQTAPGEVPALSNLRPPSRVDGMVGD",binding,binds
